Measurements published in the supplement of paper PMC5355238.
Where a name gives a salt, the structure may show the parent alone. The list shows a part of the results. Most values lie at the level of the controls, where differences are scatter.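 Using flow cytometry, the assay measures the median γH2AX antibody signal in S-phase Reh cells (a human leukemia line). Each score is the number of standard deviations from the median difference of paired plate sets. Candidate hits scored above 2.5; compounds scoring below -2 lowered MK1775-induced damage.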

These compounds were tested on Reh (assay: Z' of S-phase gammaH2AX difference (drug + MK1775 minus drug alone) (Z-score); higher = stronger synergistic S-phase DNA damage with MK1775). Details: MK1775 concentration 400 nM; first compound 10 µM; 4 h.

| SMILES | Z' of S-phase gammaH2AX difference (Z-score) |
| --- | --- |
| CN1C2CCC1CC(NC(=O)c1nn(C)c3ccccc13)C2 (stereo not drawn) [LY-278,584 maleate] + C=CCn1c(=O)c2cnc(Nc3ccc(N4CCN(C)CC4)cc3)nc2n1-c1cccc(C(C)(C)O)n1 [MK1775] | inactive: -0.558 |
| NCCCCN [Putrescine dihydrochloride] + C=CCn1c(=O)c2cnc(Nc3ccc(N4CCN(C)CC4)cc3)nc2n1-c1cccc(C(C)(C)O)n1 [MK1775] | inactive: -0.252 |
| O=C(NCCCNc1nc(Nc2cccc(NC(=O)N3CCCC3)c2)ncc1I)c1cccs1 + C=CCn1c(=O)c2cnc(Nc3ccc(N4CCN(C)CC4)cc3)nc2n1-c1cccc(C(C)(C)O)n1 [MK1775] | inactive: -0.948 |
| Nc1nnc(-c2cccc(Cl)c2Cl)c(N)n1 [Lamotrigine] + C=CCn1c(=O)c2cnc(Nc3ccc(N4CCN(C)CC4)cc3)nc2n1-c1cccc(C(C)(C)O)n1 [MK1775] | inactive: -0.25 |
| CC[C@@]1(O)C(=O)OCc2c1cc1n(c2=O)Cc2cc3c(CN(C)C)c(O)ccc3nc2-1 [Topotecan HCl] + C=CCn1c(=O)c2cnc(Nc3ccc(N4CCN(C)CC4)cc3)nc2n1-c1cccc(C(C)(C)O)n1 [MK1775] | active: 2.94 |
| O=C1c2ccccc2-c2nc3nonc3nc21 + C=CCn1c(=O)c2cnc(Nc3ccc(N4CCN(C)CC4)cc3)nc2n1-c1cccc(C(C)(C)O)n1 [MK1775] | inactive: -0.83 |
| Oc1cc(O)cc(/C=C/c2ccc(O)c(O)c2)c1 [Piceatannol] + C=CCn1c(=O)c2cnc(Nc3ccc(N4CCN(C)CC4)cc3)nc2n1-c1cccc(C(C)(C)O)n1 [MK1775] | inactive: -0.378 |
| Cc1cccc(C2CN(C)CCc3c2cc(O)c(O)c3Cl)c1 (stereo not drawn) + C=CCn1c(=O)c2cnc(Nc3ccc(N4CCN(C)CC4)cc3)nc2n1-c1cccc(C(C)(C)O)n1 [MK1775] | inactive: 0.442 |
| Cc1nc(N=Nc2cc(S(=O)(=O)O)c3cc([N+](=O)[O-])cc(S(=O)(=O)O)c3c2)c(COP(=O)(O)O)c(C=O)c1O [PPNDS tetrasodium] + C=CCn1c(=O)c2cnc(Nc3ccc(N4CCN(C)CC4)cc3)nc2n1-c1cccc(C(C)(C)O)n1 [MK1775] | inactive: 0.99 |
| CC(=O)O[C@]1(C(C)=O)CC[C@H]2[C@@H]3C=C(C)C4=CC(=O)CC[C@]4(C)[C@H]3CC[C@@]21C [Megestrol Acetate] + C=CCn1c(=O)c2cnc(Nc3ccc(N4CCN(C)CC4)cc3)nc2n1-c1cccc(C(C)(C)O)n1 [MK1775] | inactive: 0.149 |
| O=C(OCCN1CCCCC1)c1c[nH]c2ccccc12 + C=CCn1c(=O)c2cnc(Nc3ccc(N4CCN(C)CC4)cc3)nc2n1-c1cccc(C(C)(C)O)n1 [MK1775] | inactive: 0.819 |
| Cc1cccc(C)c1NC(=O)C[N+](C)(C)C [Lidocaine N-methyl hydrochloride] + C=CCn1c(=O)c2cnc(Nc3ccc(N4CCN(C)CC4)cc3)nc2n1-c1cccc(C(C)(C)O)n1 [MK1775] | inactive: -0.77 |
| CCCn1c(=O)c2[nH]c(-c3ccc(OCC(=O)NCCN)cc3)nc2n(CCC)c1=O [Xanthine amine congener] + C=CCn1c(=O)c2cnc(Nc3ccc(N4CCN(C)CC4)cc3)nc2n1-c1cccc(C(C)(C)O)n1 [MK1775] | inactive: -1.15 |
| C[C@H](CCC(=O)NCCS(=O)(=O)O)[C@H]1CC[C@H]2[C@@H]3[C@H](O)C[C@@H]4C[C@H](O)CC[C@]4(C)[C@H]3C[C@H](O)[C@]12C [Sodium Taurocholate] + C=CCn1c(=O)c2cnc(Nc3ccc(N4CCN(C)CC4)cc3)nc2n1-c1cccc(C(C)(C)O)n1 [MK1775] | inactive: 0.0301 |
| Nc1ccccc1NC(=O)c1ccc(CNc2nccc(-c3cccnc3)n2)cc1 [Mocetinostat (MGCD0103)] + C=CCn1c(=O)c2cnc(Nc3ccc(N4CCN(C)CC4)cc3)nc2n1-c1cccc(C(C)(C)O)n1 [MK1775] | inactive: -0.0791 |
| CC1=C(C(=O)O)N2C(=O)[C@@H](NC(=O)[C@H](N)c3ccccc3)[C@H]2SC1 [Cephalexin hydrate] + C=CCn1c(=O)c2cnc(Nc3ccc(N4CCN(C)CC4)cc3)nc2n1-c1cccc(C(C)(C)O)n1 [MK1775] | inactive: 0.558 |
| CCCc1c(OCCCOc2ccc(OCC(=O)O)cc2)ccc(C(C)=O)c1O + C=CCn1c(=O)c2cnc(Nc3ccc(N4CCN(C)CC4)cc3)nc2n1-c1cccc(C(C)(C)O)n1 [MK1775] | inactive: 0.085 |
| O=c1c2ccccc2[nH]c(=S)n1CCN1CCC(=C(c2ccc(F)cc2)c2ccc(F)cc2)CC1 [Diacylglycerol Kinase Inhibitor II] + C=CCn1c(=O)c2cnc(Nc3ccc(N4CCN(C)CC4)cc3)nc2n1-c1cccc(C(C)(C)O)n1 [MK1775] | inactive: 0.182 |
| CCSC(N)=Nc1ccc(C(F)(F)F)cc1 [TFPI hydrochloride] + C=CCn1c(=O)c2cnc(Nc3ccc(N4CCN(C)CC4)cc3)nc2n1-c1cccc(C(C)(C)O)n1 [MK1775] | inactive: -0.27 |
| CC[C@@H]1Cc2cc(O)ccc2C2=C1c1ccc(O)cc1C[C@H]2CC [(R,R)-cis-Diethyl tetrahydro-2,8-chrysenediol] + C=CCn1c(=O)c2cnc(Nc3ccc(N4CCN(C)CC4)cc3)nc2n1-c1cccc(C(C)(C)O)n1 [MK1775] | inactive: -0.503 |
| N=C(N)SCCN [2-(2-Aminoethyl)isothiourea dihydrobromide] + C=CCn1c(=O)c2cnc(Nc3ccc(N4CCN(C)CC4)cc3)nc2n1-c1cccc(C(C)(C)O)n1 [MK1775] | inactive: -0.454 |
| COc1cc2ncnc(Nc3ccc(F)c(Cl)c3)c2cc1NC(=O)/C=C/CN1CCCCC1 + C=CCn1c(=O)c2cnc(Nc3ccc(N4CCN(C)CC4)cc3)nc2n1-c1cccc(C(C)(C)O)n1 [MK1775] | inactive: -0.579 |
| Nc1nccc(-c2ccc3noc(-c4ccc(Cl)cc4)c3c2)n1 [PIM-1 Inhibitor 2] + C=CCn1c(=O)c2cnc(Nc3ccc(N4CCN(C)CC4)cc3)nc2n1-c1cccc(C(C)(C)O)n1 [MK1775] | inactive: -0.749 |

Copied from the listing (2 entries):

| SMILES | Z' of S-phase gammaH2AX difference (Z-score) |
| --- | --- |
| O=c1c2ccccc2[nH]c(=S)n1CCN1CCC(=C(c2ccc(F)cc2)c2ccc(F)cc2)CC1 [Diacylglycerol Kinase Inhibitor II] + C=CCn1c(=O)c2cnc(Nc3ccc(N4CCN(C)CC4)cc3)nc2n1-c1cccc(C(C)(C)O)n1 [MK1775] | inactive: 0.182 |
| CCSC(N)=Nc1ccc(C(F)(F)F)cc1 [TFPI hydrochloride] + C=CCn1c(=O)c2cnc(Nc3ccc(N4CCN(C)CC4)cc3)nc2n1-c1cccc(C(C)(C)O)n1 [MK1775] | inactive: -0.27 |
